According to the supplement of paper PMC12067093, “Discovery and optimisation of a covalent ligand for TRIM25 and its application to targeted protein ubiquitination” (Chemical Science, 2025):
The list shows a part of the results.

By UniProt entry, the sequences of proteins in these tests, tags left out. Where a name states a change or a piece, a line headed by the entry shows the natural chain unless it says otherwise.
UniProt Q8TDD1, whole entry, looked up: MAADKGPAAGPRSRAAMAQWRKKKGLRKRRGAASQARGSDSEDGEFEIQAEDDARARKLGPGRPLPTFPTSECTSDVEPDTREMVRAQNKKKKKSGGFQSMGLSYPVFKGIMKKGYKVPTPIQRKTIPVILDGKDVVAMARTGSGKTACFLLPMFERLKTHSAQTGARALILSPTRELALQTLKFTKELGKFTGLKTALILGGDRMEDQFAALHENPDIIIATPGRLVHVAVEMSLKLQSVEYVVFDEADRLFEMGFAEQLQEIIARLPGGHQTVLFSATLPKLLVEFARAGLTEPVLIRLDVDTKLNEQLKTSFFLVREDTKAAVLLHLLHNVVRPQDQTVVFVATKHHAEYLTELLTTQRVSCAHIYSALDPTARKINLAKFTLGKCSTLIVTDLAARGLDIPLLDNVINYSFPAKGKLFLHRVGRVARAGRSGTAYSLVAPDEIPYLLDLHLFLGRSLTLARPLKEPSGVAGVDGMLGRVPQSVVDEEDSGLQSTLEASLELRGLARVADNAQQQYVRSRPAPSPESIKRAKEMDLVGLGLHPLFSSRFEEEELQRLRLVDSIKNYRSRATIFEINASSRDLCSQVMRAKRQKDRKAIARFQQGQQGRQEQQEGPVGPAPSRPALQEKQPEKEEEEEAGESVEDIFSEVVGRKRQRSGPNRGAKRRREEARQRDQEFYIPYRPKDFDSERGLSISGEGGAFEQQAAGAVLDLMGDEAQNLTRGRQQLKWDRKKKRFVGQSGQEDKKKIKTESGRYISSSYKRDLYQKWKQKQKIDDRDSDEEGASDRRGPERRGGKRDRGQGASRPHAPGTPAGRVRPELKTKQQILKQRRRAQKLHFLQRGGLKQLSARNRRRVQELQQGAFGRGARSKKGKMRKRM
UniProt Q5T1V6: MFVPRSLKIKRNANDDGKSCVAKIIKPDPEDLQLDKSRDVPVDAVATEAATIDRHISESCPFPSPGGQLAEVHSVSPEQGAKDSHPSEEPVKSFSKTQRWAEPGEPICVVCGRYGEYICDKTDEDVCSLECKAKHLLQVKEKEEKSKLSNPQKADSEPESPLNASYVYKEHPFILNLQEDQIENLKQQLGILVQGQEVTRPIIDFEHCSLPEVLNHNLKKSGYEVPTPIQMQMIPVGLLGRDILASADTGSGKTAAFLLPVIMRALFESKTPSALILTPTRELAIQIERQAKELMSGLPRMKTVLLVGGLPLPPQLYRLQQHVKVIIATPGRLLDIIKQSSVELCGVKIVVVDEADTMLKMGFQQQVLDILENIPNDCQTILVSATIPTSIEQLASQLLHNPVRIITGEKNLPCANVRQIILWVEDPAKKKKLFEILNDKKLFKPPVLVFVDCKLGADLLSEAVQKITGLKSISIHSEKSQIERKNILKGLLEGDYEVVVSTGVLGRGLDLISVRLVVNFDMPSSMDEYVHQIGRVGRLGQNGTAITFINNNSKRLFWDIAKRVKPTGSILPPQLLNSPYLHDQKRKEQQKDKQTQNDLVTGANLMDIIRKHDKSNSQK
UniProt Q5H9U9: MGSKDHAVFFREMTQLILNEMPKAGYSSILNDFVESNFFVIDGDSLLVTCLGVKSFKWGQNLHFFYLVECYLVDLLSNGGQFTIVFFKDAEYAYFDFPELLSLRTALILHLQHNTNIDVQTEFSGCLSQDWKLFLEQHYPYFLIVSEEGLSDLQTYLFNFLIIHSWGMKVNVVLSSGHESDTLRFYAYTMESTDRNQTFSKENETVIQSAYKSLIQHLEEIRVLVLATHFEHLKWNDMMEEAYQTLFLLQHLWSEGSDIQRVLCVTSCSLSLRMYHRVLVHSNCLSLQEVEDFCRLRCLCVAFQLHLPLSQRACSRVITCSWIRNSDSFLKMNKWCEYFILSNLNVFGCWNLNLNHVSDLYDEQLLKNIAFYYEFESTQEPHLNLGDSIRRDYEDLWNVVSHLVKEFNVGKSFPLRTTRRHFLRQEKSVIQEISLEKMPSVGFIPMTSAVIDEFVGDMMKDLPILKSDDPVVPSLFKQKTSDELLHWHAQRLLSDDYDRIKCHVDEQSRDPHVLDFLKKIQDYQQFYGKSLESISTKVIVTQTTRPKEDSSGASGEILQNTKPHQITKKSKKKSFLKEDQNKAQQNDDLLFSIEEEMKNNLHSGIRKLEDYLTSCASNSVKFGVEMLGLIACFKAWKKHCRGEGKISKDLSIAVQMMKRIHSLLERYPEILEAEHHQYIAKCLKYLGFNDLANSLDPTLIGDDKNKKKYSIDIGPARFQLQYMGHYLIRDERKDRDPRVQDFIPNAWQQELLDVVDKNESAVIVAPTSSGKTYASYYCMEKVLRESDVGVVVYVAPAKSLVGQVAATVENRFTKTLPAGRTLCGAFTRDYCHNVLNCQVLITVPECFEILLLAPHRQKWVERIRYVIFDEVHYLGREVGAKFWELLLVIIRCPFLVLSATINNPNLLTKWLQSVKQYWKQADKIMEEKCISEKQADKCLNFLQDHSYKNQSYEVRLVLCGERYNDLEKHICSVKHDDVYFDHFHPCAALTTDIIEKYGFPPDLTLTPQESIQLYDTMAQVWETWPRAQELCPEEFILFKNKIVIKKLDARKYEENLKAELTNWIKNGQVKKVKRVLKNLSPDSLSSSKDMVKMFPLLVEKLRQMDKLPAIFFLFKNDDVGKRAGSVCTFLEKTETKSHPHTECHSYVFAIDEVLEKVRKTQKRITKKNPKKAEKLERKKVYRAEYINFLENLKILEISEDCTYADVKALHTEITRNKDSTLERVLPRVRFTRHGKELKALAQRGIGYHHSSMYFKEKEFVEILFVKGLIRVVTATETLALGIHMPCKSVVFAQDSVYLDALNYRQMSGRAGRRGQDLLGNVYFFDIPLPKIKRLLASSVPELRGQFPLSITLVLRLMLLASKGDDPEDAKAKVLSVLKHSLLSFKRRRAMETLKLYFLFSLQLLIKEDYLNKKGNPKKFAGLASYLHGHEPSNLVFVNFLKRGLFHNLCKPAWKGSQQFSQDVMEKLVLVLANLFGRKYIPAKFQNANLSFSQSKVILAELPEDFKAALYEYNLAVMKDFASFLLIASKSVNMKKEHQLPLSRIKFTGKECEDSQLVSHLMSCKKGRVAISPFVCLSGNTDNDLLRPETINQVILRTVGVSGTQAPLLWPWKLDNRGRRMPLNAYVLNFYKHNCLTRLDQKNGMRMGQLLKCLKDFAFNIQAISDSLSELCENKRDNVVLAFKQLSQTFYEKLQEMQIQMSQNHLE
UniProt Q9NR30: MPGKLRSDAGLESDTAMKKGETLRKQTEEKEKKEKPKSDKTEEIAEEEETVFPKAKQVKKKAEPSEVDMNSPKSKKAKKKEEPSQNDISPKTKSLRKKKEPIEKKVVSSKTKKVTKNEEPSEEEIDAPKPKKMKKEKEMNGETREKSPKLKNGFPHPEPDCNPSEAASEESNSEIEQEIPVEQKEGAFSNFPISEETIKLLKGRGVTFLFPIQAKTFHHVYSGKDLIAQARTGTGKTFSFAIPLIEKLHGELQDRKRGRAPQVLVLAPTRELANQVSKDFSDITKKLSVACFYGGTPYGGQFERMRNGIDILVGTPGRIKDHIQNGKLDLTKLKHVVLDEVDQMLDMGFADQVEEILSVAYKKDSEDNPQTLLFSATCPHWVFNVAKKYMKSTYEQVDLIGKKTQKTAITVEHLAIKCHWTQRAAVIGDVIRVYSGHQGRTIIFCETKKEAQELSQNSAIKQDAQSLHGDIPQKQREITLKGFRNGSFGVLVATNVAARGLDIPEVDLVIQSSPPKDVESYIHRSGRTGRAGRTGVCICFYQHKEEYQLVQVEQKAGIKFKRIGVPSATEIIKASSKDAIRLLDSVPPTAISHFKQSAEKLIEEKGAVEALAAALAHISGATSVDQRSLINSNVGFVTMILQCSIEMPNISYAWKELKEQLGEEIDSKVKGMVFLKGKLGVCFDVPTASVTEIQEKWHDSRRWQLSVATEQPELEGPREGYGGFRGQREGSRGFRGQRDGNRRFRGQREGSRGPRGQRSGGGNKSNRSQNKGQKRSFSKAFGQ

Compound: Cc1cc(ccc1-c1ccccc1)C(=O)N1CCCN(CC1)C(=O)CCl [compound 10]
Test: probe-labelled cysteine peptide fold change vs DMSO (competition) (log2 fold change); higher = less target engagement (more negative = stronger competition)
Conditions: THP-1, incubation time: 4 h
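Also: competitive profiling in live THP-1 cells: cysteine peptides tagged with an iodoacetamide desthiobiotin (IA-DTB) probe, intensity after compound treatment relative to DMSO-treated cells.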

| Target | probe-labelled cysteine peptide fold change (10 µM) | probe-labelled cysteine peptide fold change (50 µM) |
| --- | --- | --- |
| DDX54_Q8TDD1_73_KLGPGRPLPTFPTSECTSDVEPDTR (UniProt Q8TDD1) | -0.208 | -0.387 |
| DDX59_Q5T1V6_414_NLPCANVR (UniProt Q5T1V6) | -0.0371 | -0.716 |
| DDX60L_Q5H9U9_1201_ILEISEDCTYADVK (UniProt Q5H9U9) | 0.128 | 0.448 |
| DDX21_Q9NR30_537+539_TGVCICFYQHK (UniProt Q9NR30) | -0.0316 | -0.0812 |
